Changes are numbered by the printed parent chain. The list shows a part of the results. Calls are pooled over several reports, among them a noisy single-well screen.
Experiments:
Conditions in all cases: stereoisomer not certain
O11H1 [1] = test system: T1, O11H1
T1 sequence (whole entry): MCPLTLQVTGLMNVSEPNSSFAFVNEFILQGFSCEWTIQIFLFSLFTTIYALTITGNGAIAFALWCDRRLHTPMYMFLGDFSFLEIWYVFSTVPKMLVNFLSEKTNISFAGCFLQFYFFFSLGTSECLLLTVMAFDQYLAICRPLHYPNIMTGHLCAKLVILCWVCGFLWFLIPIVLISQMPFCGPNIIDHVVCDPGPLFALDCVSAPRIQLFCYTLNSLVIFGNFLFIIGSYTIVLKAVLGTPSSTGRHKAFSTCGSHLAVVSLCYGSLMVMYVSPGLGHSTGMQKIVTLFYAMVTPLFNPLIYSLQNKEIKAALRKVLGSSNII
Method in brief: (§1)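 Assay methods differ from source to source, frequently being transient luciferase assays in mammalian cell lines. For each receptor–molecule pair, the label responsive (active) applies when the original authors judged the measured signal statistically different from baseline, and non-responsive (inactive) applies otherwise.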

Chains of the proteins cited; added tags and fusions are not shown. A line that says so, or that is headed by a name, gives the form on record, which may keep a tag or linker.
O13A1, as listed by the source: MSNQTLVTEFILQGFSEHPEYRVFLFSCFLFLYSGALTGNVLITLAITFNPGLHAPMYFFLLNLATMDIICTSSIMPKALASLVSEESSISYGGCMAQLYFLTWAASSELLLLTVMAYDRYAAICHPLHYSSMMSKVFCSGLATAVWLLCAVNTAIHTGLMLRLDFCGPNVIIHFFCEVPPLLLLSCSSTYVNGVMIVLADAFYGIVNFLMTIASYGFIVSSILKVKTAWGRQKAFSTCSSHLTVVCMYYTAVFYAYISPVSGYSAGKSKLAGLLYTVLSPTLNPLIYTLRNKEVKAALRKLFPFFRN
O11H6, as listed by the source: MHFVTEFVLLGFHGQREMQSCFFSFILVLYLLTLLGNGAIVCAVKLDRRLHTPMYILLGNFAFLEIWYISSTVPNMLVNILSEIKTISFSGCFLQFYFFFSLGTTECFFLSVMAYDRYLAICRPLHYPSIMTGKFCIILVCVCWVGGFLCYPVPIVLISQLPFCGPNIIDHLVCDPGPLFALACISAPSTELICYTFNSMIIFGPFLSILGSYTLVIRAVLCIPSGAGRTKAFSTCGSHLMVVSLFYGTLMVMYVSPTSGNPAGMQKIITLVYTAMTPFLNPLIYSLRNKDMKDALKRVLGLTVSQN
O11H2, as listed by the source: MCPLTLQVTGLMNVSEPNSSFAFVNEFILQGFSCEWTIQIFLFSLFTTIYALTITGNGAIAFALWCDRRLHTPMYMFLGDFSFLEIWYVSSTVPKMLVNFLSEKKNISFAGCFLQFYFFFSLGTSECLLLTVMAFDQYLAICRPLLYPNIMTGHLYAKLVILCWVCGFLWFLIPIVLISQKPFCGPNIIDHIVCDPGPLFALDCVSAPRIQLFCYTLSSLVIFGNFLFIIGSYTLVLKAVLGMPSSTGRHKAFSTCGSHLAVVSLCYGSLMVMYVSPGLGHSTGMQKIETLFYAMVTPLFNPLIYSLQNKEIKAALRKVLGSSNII

O11H1 [2] = test system: T2, O11H1; remark: listed apart in the source
T2 sequence (whole entry): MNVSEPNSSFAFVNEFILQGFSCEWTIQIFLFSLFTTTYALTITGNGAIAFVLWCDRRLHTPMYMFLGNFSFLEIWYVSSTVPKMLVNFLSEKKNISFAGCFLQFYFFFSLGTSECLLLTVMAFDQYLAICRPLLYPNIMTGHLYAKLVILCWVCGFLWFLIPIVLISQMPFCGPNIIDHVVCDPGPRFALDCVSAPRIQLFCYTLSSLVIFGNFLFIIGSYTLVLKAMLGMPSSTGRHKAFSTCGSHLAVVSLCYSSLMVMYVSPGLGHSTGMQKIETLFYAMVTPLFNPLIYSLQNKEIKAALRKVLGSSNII
Method in brief: as §1

O11H2 = test system: T3, O11H2
T3 sequence (whole entry): T1 sequence (whole entry) with F90S, T105K, H146L, C156Y, M181K, V192I, N218S, I235L, T243M, V289E
Method in brief: as §1

O11H4 = test system: T4, O11H4
T4 sequence (whole entry): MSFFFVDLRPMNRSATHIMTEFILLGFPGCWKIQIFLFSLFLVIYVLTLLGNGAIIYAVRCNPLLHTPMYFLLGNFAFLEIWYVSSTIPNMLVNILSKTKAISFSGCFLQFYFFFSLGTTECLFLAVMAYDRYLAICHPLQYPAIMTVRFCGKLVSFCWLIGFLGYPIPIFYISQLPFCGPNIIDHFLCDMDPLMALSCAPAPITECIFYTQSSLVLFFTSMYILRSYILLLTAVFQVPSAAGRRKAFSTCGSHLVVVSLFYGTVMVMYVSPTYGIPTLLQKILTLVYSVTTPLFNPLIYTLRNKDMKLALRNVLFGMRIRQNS
Method in brief: as §1

O11L1 = test system: T5, O11L1
T5 sequence (whole entry): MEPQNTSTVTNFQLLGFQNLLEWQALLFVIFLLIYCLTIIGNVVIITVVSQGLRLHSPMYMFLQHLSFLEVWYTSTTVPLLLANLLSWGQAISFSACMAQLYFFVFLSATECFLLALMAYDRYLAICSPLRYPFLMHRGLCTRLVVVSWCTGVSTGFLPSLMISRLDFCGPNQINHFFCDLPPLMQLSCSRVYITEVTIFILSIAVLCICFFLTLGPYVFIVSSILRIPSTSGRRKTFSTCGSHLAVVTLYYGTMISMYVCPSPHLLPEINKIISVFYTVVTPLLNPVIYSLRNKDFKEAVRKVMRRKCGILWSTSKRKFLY
Method in brief: as §1

O12D2 = test system: T6, O12D2
T6 sequence (whole entry): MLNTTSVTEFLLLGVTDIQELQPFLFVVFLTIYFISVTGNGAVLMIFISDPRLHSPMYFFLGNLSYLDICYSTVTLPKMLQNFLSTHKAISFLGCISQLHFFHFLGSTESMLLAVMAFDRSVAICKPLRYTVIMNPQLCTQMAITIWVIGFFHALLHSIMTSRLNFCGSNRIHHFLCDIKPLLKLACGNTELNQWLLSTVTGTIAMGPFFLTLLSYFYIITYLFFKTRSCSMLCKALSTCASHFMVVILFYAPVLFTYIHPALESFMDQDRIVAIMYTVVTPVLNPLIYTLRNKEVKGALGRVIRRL
Method in brief: as §1

O13C3 = test system: T7, O13C3
T7 sequence (whole entry): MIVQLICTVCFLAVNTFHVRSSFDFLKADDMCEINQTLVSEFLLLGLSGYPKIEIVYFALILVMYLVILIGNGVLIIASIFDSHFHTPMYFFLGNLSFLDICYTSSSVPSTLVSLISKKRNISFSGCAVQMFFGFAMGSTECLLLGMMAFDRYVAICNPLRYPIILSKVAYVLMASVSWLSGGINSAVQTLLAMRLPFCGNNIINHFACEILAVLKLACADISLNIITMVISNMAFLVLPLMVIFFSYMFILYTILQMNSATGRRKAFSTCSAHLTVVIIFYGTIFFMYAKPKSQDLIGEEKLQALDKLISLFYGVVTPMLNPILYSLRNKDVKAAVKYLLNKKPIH
Method in brief: as §1

O13C5 = test system: T8, O13C5
T8 sequence (whole entry): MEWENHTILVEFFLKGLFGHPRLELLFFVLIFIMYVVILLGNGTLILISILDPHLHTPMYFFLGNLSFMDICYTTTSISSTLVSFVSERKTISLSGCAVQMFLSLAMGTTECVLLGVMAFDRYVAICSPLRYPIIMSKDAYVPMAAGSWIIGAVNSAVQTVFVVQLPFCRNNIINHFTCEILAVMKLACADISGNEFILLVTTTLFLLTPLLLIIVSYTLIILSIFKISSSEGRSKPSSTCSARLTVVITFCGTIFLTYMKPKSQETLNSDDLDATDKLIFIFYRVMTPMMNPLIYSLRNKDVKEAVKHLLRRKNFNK
Method in brief: as §1

O13C7 = test system: T9, O13C7
T9 sequence (whole entry): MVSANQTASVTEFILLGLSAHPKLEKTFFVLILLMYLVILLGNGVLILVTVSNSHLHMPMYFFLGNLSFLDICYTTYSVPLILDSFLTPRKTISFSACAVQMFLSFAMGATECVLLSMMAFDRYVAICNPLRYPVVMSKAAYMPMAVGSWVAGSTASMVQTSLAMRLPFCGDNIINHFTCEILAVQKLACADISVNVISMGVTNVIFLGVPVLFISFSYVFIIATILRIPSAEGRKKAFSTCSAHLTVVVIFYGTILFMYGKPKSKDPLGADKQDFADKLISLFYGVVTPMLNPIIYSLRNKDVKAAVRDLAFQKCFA
Method in brief: as §1

O13C9 = test system: T10, O13C9
T10 sequence (whole entry): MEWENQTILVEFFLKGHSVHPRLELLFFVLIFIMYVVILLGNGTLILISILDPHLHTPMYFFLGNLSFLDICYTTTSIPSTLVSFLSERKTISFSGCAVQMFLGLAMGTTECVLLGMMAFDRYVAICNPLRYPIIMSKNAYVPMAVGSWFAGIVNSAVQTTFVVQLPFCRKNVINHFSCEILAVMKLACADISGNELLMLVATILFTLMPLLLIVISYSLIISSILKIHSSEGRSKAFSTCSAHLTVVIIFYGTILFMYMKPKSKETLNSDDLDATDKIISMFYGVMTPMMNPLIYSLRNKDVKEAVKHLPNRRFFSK
Method in brief: as §1

O13D1 [3] = test system: T11, O13D1
T11 sequence (whole entry): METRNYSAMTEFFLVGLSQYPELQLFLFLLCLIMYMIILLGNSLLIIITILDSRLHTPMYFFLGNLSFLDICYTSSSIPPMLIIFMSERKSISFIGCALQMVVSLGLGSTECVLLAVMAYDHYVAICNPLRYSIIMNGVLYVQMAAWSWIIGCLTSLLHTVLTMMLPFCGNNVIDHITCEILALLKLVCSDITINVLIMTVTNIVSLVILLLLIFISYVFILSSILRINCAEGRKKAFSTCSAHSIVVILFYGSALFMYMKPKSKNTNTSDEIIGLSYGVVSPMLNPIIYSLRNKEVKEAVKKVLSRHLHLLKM
Method in brief: as §1

O13D1 [4] = test system: T12, O13D1; remark: listed apart in the source
T12 sequence (whole entry): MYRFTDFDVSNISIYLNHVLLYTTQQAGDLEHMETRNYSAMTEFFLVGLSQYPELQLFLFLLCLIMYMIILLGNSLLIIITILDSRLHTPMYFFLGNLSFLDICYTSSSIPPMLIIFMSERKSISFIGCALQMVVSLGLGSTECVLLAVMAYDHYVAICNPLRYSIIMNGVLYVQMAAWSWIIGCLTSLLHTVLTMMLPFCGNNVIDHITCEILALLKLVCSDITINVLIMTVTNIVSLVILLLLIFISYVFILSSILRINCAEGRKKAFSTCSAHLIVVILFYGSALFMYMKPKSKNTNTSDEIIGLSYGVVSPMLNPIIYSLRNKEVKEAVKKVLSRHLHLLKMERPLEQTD
Method in brief: as §1

O13F1 = test system: T13, O13F1
T13 sequence (whole entry): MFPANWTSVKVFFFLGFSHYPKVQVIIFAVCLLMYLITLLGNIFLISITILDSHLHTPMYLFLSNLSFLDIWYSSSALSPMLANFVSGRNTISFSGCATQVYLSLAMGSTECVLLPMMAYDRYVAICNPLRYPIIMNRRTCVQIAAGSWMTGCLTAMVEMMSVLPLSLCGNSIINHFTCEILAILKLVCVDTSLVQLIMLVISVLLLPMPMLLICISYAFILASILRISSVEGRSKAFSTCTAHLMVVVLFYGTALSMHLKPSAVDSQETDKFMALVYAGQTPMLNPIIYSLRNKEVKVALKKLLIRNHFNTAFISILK
Method in brief: as §1

O13G1 = test system: T14, O13G1
T14 sequence (whole entry): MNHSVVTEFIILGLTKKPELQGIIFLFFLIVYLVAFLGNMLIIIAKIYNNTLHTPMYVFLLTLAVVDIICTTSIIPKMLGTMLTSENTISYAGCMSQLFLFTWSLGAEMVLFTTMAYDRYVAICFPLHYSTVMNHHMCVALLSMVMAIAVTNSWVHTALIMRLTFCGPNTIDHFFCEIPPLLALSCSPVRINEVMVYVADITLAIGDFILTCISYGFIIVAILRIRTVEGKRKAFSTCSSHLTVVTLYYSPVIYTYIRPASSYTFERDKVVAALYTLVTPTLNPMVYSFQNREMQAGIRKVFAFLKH
Method in brief: as §1

O13J1 = test system: T15, O13J1
T15 sequence (whole entry): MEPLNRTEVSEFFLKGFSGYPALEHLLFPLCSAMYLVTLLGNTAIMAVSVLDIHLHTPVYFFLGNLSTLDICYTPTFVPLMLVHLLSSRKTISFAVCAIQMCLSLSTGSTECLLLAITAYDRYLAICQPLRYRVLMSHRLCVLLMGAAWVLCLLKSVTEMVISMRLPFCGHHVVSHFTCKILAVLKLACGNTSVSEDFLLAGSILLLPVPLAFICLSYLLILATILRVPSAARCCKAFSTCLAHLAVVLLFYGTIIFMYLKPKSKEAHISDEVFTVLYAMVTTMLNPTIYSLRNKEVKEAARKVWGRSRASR
Method in brief: as §1

O13A1 [5] = test system: O13A1
Method in brief: as §1

O13A1 [6] = test system: O13A1; remark: listed apart in the source
Method in brief: as §1

O11H6 = test system: O11H6
Method in brief: as §1

Measured: odorant receptor agonist call

CCC1(O)C2(C)CCC(C2)C1(C)C (stereo not drawn)
active: O11H1 [2]
not listed: O13A1 [5] | O13A1 [6] | O11H6
inactive: all other assays above

O=CCc1ccccc1
active: O11H1 [2]
not listed: O13A1 [5] | O13A1 [6] | O11H6
inactive: all other assays above

C=CCc1ccc(OC)c(OC)c1
not listed: O13A1 [5] | O13A1 [6] | O11H6
inactive: all other assays above

CC12CCC(C1)C(C)(C)C2=O (stereo not drawn)
not listed: O13A1 [5] | O13A1 [6] | O11H6
inactive: all other assays above

c1cnccn1
not listed: O13A1 [5] | O13A1 [6] | O11H6
inactive: all other assays above

COC(=O)c1ccccc1O
not listed: O13A1 [5] | O13A1 [6] | O11H6
inactive: all other assays above

C=CC(C)(O)CCC=C(C)C (stereo not drawn)
not listed: O11H6
inactive: all other assays above

CCCCCCCCCCC=O
active: O11H1 [2]
not listed: O13A1 [5] | O13A1 [6] | O11H6
inactive: all other assays above

CCCCCCCOC(C)=O
not listed: O13A1 [5] | O13A1 [6] | O11H6
inactive: all other assays above

CC(C)CCC(=O)O
not listed: O13A1 [5] | O13A1 [6] | O11H6
inactive: all other assays above

CC1=CCC(C(C)(C)O)CC1 (stereo not drawn)
not listed: O13A1 [5] | O13A1 [6] | O11H6
inactive: all other assays above

CC(C)CC(=O)O
active: O11H4 | O11H6
not listed: O13A1 [5] | O13A1 [6]
inactive: all other assays above

CC12C=CCC1C1CCC3=CC(=O)CCC3(C)C1CC2 (stereo not drawn)
not listed: O13A1 [5] | O13A1 [6] | O11H6
inactive: all other assays above

CC12C=CCC1C1CCC3CC(=O)CCC3(C)C1CC2 (stereo not drawn)
not listed: O13A1 [5] | O13A1 [6] | O11H6
inactive: all other assays above

CCC=CCCO
not listed: O13A1 [5] | O13A1 [6] | O11H6
inactive: all other assays above

CC12CCC(CC1)C(C)(C)O2
not listed: O13A1 [5] | O13A1 [6] | O11H6
inactive: all other assays above

COc1ccccc1O
not listed: O13A1 [5] | O13A1 [6] | O11H6
inactive: all other assays above

CC(=O)C(C)=O
not listed: O13A1 [5] | O13A1 [6] | O11H6
inactive: all other assays above
